These are yes or no findings as the source states them, for the method shown. In cells and extracts the contact can be indirect. A yes stands for co-enrichment or nearness to the bait. Other partners may have been found. No binding means not detected with the bait. Tags and fused reporters may be left off the sequences shown.

This assay addresses T1, Spc105-TurboID (S. cerevisiae) (UniProt P53148).
T1 sequence: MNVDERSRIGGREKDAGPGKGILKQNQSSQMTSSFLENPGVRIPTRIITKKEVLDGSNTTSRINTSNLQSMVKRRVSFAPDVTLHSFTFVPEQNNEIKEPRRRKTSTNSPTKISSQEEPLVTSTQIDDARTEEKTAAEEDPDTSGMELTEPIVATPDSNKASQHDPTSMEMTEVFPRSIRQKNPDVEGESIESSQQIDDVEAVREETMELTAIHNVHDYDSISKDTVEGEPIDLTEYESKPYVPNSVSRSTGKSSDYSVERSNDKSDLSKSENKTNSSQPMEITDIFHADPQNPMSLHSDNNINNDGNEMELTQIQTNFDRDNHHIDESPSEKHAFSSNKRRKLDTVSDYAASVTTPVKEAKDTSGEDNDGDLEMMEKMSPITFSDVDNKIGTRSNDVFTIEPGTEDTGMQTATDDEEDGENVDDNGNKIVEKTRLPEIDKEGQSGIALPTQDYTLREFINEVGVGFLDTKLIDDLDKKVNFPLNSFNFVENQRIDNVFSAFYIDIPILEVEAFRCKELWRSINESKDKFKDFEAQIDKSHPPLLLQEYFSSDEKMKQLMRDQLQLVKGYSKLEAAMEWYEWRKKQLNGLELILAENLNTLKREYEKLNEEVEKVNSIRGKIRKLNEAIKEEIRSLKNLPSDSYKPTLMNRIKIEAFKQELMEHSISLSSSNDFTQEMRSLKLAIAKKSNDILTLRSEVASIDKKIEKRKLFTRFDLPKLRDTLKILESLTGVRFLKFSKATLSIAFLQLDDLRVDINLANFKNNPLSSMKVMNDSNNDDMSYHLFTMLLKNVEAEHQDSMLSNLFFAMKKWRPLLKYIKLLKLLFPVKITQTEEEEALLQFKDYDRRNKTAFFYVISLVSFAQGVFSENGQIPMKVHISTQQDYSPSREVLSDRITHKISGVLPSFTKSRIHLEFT
The assay is described as follows: proximity labelling; in vivo biotinylation by Spc105-TurboID in yeast; streptavidin-sepharose purification from lysates with SDS washes; anti-Flag blot of Flag-tagged candidates.

B1: Sli15-6xFlag (protein, UniProt P38283 1-698)
chain: MDWAIKAARKKTQRKPGSTRSIIETLDDLNNLTTDAHSEINQRLYESSEWLRNNVYMNTLKYEDKKMEESLISPENTHNKMDVEFPKMKGEYELSNSQNDAAKDVTKTPRNGLHNDKSITPKSLRRKEVTEGMNRFSIHDTNKSPVEPLNSVKVDANESEKSSPWSPYKVEKVLRESSKTSESPINTKRFDNQTWAAKEEMENEPILQALKKAESVKVKPPPNSGIARSQRRSNMFVPLPNKDPLIIQHIPPTKSSGSIPKVRTVKESPIAFKKKSTINSPAIRAVENSDTAGSTKASSVFDRLSSIPTKSFENKISRGNVGHKYSSSSIDLTGSPMKKVSQKFKSINSTDTDMQEALRDIFSVKNKITKNNSPKGKNSRKSSIPRFDKTSLKLTTHKKLAIIAEQKKKSKHSSDVHKTGSRPHSISPTKISVDSSSPSKEVKNYYQSPVRGYLRPTKASISPNKNKNLTTSQTPHRLKIKEKTLRKLSPNIADISKPESRKSKNYRLTNLQLLPPAEAERDDLKKKFDKRLSGIMRSQQEHHRRKQEKQKRMSHLEQDLKKQTSFSNDYKDIRLKESLAPFDNHVRDTINKNTAFSTDNILATINTVDHREIIGNVTPKIASVNDSLPEINTDSEDEASVTLAAWAKSPYLQEQLIRQQDINPQTIFGPIPPLHTDEIFPNPRLNRLKPRQIVPKRS
With B1, the binding entry is on record as “binds”.

B2: Flag-tagged Cin8 (nuclear kinesin-5 motor protein) (protein, UniProt P27895 1-1000)
chain: MPAENQNTGQDRSSNSISKNGNSQVGCHTVPNEELNITVAVRCRGRNEREISMKSSVVVNVPDITGSKEISINTTGDTGITAQMNAKRYTVDKVFGPGASQDLIFDEVAGPLFQDFIKGYNCTVLVYGMTSTGKTYTMTGDEKLYNGELSDAAGIIPRVLLKLFDTLELQQNDYVVKCSFIELYNEELKDLLDSNSNGSSNTGFDGQFMKKLRIFDSSTANNTTSNSASSSRSNSRNSSPRSLNDLTPKAALLRKRLRTKSLPNTIKQQYQQQQAVNSRNNSSSNSGSTTNNASSNTNTNNGQRSSMAPNDQTNGIYIQNLQEFHITNAMEGLNLLQKGLKHRQVASTKMNDFSSRSHTIFTITLYKKHQDELFRISKMNLVDLAGSENINRSGALNQRAKEAGSINQSLLTLGRVINALVDKSGHIPFRESKLTRLLQDSLGGNTKTALIATISPAKVTSEETCSTLEYASKAKNIKNKPQLGSFIMKDILVKNITMELAKIKSDLLSTKSKEGIYMSQDHYKNLNSDLESYKNEVQECKREIESLTSKNALLVKDKLKSKETIQSQNCQIESLKTTIDHLRAQLDKQHKTEIEISDFNNKLQKLTEVMQMALHDYKKRELDLNQKFEMHITKEIKKLKSTLFLQLNTMQQESILQETNIQPNLDMIKNEVLTLMRTMQEKAELMYKDCVKKILNESPKFFNVVIEKIDIIRVDFQKFYKNIAENLSDISEENNNMKQYLKNHFFKNNHQELLNRHVDSTYENIEKRTNEFVENFKKVLNDHLDENKKLIMQNLTTATSAVIDQEMDLFEPKRVKWENSFDLINDCDSMNNEFYNSMAATLSQIKSTVDTSSNSMNESISVMKGQVEESENAISLLKNNTKFNDQFEQLINKHNMLKDNIKNSITSTHSHITNVDDIYNTIENIMKNYGNKENATKDEMIENILKEIPNLSKKMPLRLSNINSNSVQSVISPKKHAIEDENKSSENVDNEGSRKMLKIE
For B2, the binding entry was “no binding”.
